# Screening data

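Malaria parasite (P. falciparum) lines kept in red blood cells; parasite DNA is measured by SYBR Green fluorescence after lysis, 72 h after compound addition. Each compound was titrated across a series from about 0.000037 to 29 µM. The number is the fitted AC50, the concentration giving a half-maximal change in signal; a lower value means higher potency, whether the curve shows a decrease or an increase. Calls follow the curve class and fit quality: every row here is inconclusive, covering signal-raising curves and weak, poorly fitted, partial or highest-dose-only inhibition curves.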

Values are in µM. Every entry below has the call inconclusive. Only part of the assay is shown, chiefly results filed as inconclusive. Potencies fitted to partial, single-point or poorly fitting curves are rough.

| Compound | condition | fitted potency (µM) | curve |
|---|---|---|---|
| `CO[C@H]1/C=C/O[C@@]2(C)Oc3c(C)c(O)c4c(O)c(c5c(c4c3C2=O)NC2(CCN(CC(C)C)CC2)N=5)=NC(=O)/C(C)=C\C=C\[C@H](C)[C@H](O)[C@@H](C)[C@@H](O)[C@@H](C)[C@H](OC(C)=O)[C@@H]1C` | PC49 | 17.78 | inhibitor, single point |
| `CO[C@H]1/C=C/O[C@@]2(C)Oc3c(C)c(O)c4c(O)c(c5c(c4c3C2=O)NC2(CCN(CC(C)C)CC2)N=5)=NC(=O)/C(C)=C\C=C\[C@H](C)[C@H](O)[C@@H](C)[C@@H](O)[C@@H](C)[C@H](OC(C)=O)[C@@H]1C` | CP268 | 12 | inhibitor, single point |
| `CO[C@H]1/C=C/O[C@@]2(C)Oc3c(C)c(O)c4c(O)c(c5c(c4c3C2=O)NC2(CCN(CC(C)C)CC2)N=5)=NC(=O)/C(C)=C\C=C\[C@H](C)[C@H](O)[C@@H](C)[C@@H](O)[C@@H](C)[C@H](OC(C)=O)[C@@H]1C` | CP194 | 15.1 | inhibitor, single point |
| `C[C@@H]1CC2[C@@H]3C[C@H](F)C4=CC(=O)C(Cl)=C[C@]4(C)[C@@]3(F)[C@H](O)C[C@]2(C)[C@@]1(O)C(=O)CO` (stereo partly shown) | TAB165 | 12.59 | inhibitor, single point |
| `C[C@@H]1CC2[C@@H]3C[C@H](F)C4=CC(=O)C(Cl)=C[C@]4(C)[C@@]3(F)[C@H](O)C[C@]2(C)[C@@]1(O)C(=O)CO` (stereo partly shown) | N140 | 17.78 | inhibitor, single point |
| `C[C@@H]1CC2[C@@H]3C[C@H](F)C4=CC(=O)C(Cl)=C[C@]4(C)[C@@]3(F)[C@H](O)C[C@]2(C)[C@@]1(O)C(=O)CO` (stereo partly shown) | PAD | 17.78 | inhibitor, single point |
| `C[C@@H]1CC2[C@@H]3C[C@H](F)C4=CC(=O)C(Cl)=C[C@]4(C)[C@@]3(F)[C@H](O)C[C@]2(C)[C@@]1(O)C(=O)CO` (stereo partly shown) | CP252 | 10 | inhibitor, single point |
| `C[C@@H]1CC2[C@@H]3C[C@H](F)C4=CC(=O)C(Cl)=C[C@]4(C)[C@@]3(F)[C@H](O)C[C@]2(C)[C@@]1(O)C(=O)CO` (stereo partly shown) | DIV14 | 13.46 | inhibitor, partial curve |
| `C[C@@H]1CC2[C@@H]3C[C@H](F)C4=CC(=O)C(Cl)=C[C@]4(C)[C@@]3(F)[C@H](O)C[C@]2(C)[C@@]1(O)C(=O)CO` (stereo partly shown) | TAB109 | 17.78 | inhibitor, single point |
| `C[C@@H]1CC2[C@@H]3C[C@H](F)C4=CC(=O)C(Cl)=C[C@]4(C)[C@@]3(F)[C@H](O)C[C@]2(C)[C@@]1(O)C(=O)CO` (stereo partly shown) | ATS95 | 11.22 | inhibitor, single point |
| `C[C@@H]1CC2[C@@H]3C[C@H](F)C4=CC(=O)C(Cl)=C[C@]4(C)[C@@]3(F)[C@H](O)C[C@]2(C)[C@@]1(O)C(=O)CO` (stereo partly shown) | CP260 | 17.78 | inhibitor, single point |
| `C[C@@H]1CC2[C@@H]3C[C@H](F)C4=CC(=O)C(Cl)=C[C@]4(C)[C@@]3(F)[C@H](O)C[C@]2(C)[C@@]1(O)C(=O)CO` (stereo partly shown) | P94_40 | 8.912 | inhibitor, single point |
| `C[C@@H]1CC2[C@@H]3C[C@H](F)C4=CC(=O)C(Cl)=C[C@]4(C)[C@@]3(F)[C@H](O)C[C@]2(C)[C@@]1(O)C(=O)CO` (stereo partly shown) | AA1029 | 12.59 | inhibitor, single point |
| `C[C@@H]1CC2[C@@H]3C[C@H](F)C4=CC(=O)C(Cl)=C[C@]4(C)[C@@]3(F)[C@H](O)C[C@]2(C)[C@@]1(O)C(=O)CO` (stereo partly shown) | CP191 | 11.22 | inhibitor, single point |
| `C[C@@H]1CC2[C@@H]3C[C@H](F)C4=CC(=O)C(Cl)=C[C@]4(C)[C@@]3(F)[C@H](O)C[C@]2(C)[C@@]1(O)C(=O)CO` (stereo partly shown) | PC26 | 19.01 | inhibitor, single point |
| `C[C@@H]1CC2[C@@H]3C[C@H](F)C4=CC(=O)C(Cl)=C[C@]4(C)[C@@]3(F)[C@H](O)C[C@]2(C)[C@@]1(O)C(=O)CO` (stereo partly shown) | CP237 | 14.13 | inhibitor, single point |
| `C[C@@H]1CC2[C@@H]3C[C@H](F)C4=CC(=O)C(Cl)=C[C@]4(C)[C@@]3(F)[C@H](O)C[C@]2(C)[C@@]1(O)C(=O)CO` (stereo partly shown) | GB4 | 19.01 | inhibitor, single point |
| `C[C@@H]1CC2[C@@H]3C[C@H](F)C4=CC(=O)C(Cl)=C[C@]4(C)[C@@]3(F)[C@H](O)C[C@]2(C)[C@@]1(O)C(=O)CO` (stereo partly shown) | W2 | 16.94 | inhibitor, single point |
| `C[C@@H]1CC2[C@@H]3C[C@H](F)C4=CC(=O)C(Cl)=C[C@]4(C)[C@@]3(F)[C@H](O)C[C@]2(C)[C@@]1(O)C(=O)CO` (stereo partly shown) | DIV17 | 19.01 | inhibitor, single point |
| `C[C@@H]1CC2[C@@H]3C[C@H](F)C4=CC(=O)C(Cl)=C[C@]4(C)[C@@]3(F)[C@H](O)C[C@]2(C)[C@@]1(O)C(=O)CO` (stereo partly shown) | ICS | 14.13 | inhibitor, single point |
| `C[C@@H]1CC2[C@@H]3C[C@H](F)C4=CC(=O)C(Cl)=C[C@]4(C)[C@@]3(F)[C@H](O)C[C@]2(C)[C@@]1(O)C(=O)CO` (stereo partly shown) | ECU | 11.22 | inhibitor, single point |
| `C[C@@H]1CC2[C@@H]3C[C@H](F)C4=CC(=O)C(Cl)=C[C@]4(C)[C@@]3(F)[C@H](O)C[C@]2(C)[C@@]1(O)C(=O)CO` (stereo partly shown) | TAB113 | 19.95 | inhibitor, single point |
| `C[C@@H]1CC2[C@@H]3C[C@H](F)C4=CC(=O)C(Cl)=C[C@]4(C)[C@@]3(F)[C@H](O)C[C@]2(C)[C@@]1(O)C(=O)CO` (stereo partly shown) | CP203 | 12 | inhibitor, partial curve, poor fit |
| `C[C@@H]1CC2[C@@H]3C[C@H](F)C4=CC(=O)C(Cl)=C[C@]4(C)[C@@]3(F)[C@H](O)C[C@]2(C)[C@@]1(O)C(=O)CO` (stereo partly shown) | AS120 | 12.59 | inhibitor, single point |
| `C[C@@H]1CC2[C@@H]3C[C@H](F)C4=CC(=O)C(Cl)=C[C@]4(C)[C@@]3(F)[C@H](O)C[C@]2(C)[C@@]1(O)C(=O)CO` (stereo partly shown) | CP247 | 10 | inhibitor, single point |
| `C[C@@H]1CC2[C@@H]3C[C@H](F)C4=CC(=O)C(Cl)=C[C@]4(C)[C@@]3(F)[C@H](O)C[C@]2(C)[C@@]1(O)C(=O)CO` (stereo partly shown) | CP238 | 11.22 | inhibitor, single point |
| `C[C@@H]1CC2[C@@H]3C[C@H](F)C4=CC(=O)C(Cl)=C[C@]4(C)[C@@]3(F)[C@H](O)C[C@]2(C)[C@@]1(O)C(=O)CO` (stereo partly shown) | P93_24 | 11.22 | inhibitor, single point |
| `C[C@@H]1CC2[C@@H]3C[C@H](F)C4=CC(=O)C(Cl)=C[C@]4(C)[C@@]3(F)[C@H](O)C[C@]2(C)[C@@]1(O)C(=O)CO` (stereo partly shown) | CP185 | 14.13 | inhibitor, single point |
| `C[C@@H]1CC2[C@@H]3C[C@H](F)C4=CC(=O)C(Cl)=C[C@]4(C)[C@@]3(F)[C@H](O)C[C@]2(C)[C@@]1(O)C(=O)CO` (stereo partly shown) | C2A | 12.59 | inhibitor, single point |
| `Cn1c(=O)c2[nH]c(Br)nc2n(C)c1=O` | parasite line A | 3.981 | inhibitor, single point |
| `Cn1c(=O)c2[nH]c(Br)nc2n(C)c1=O` | P94_40 | 3.548 | inhibitor, single point |
| `Cn1c(=O)c2[nH]c(Br)nc2n(C)c1=O` | DFO2036 | 3.981 | inhibitor, single point |
| `Cn1c(=O)c2[nH]c(Br)nc2n(C)c1=O` | TAB109 | 3.981 | inhibitor, single point |
| `Cn1c(=O)c2[nH]c(Br)nc2n(C)c1=O` | AA1029 | 3.981 | inhibitor, single point |
| `CCCCCCCCCCCCCCCCCCCCCCO` | CP194 | 0.4256 | inhibitor, partial curve, poor fit |
| `O=C(O)c1nn(Cc2ccc(Cl)cc2Cl)c2ccccc12` | CP203 | 0.7569 | inhibitor, partial curve, poor fit |
| `O=C(O)c1cn(C2CC2)c2cc(N3CCNCC3)c(F)cc2c1=O` | GB4 | 5.103 | inhibitor, single point |
| `O=C(O)c1cn(C2CC2)c2cc(N3CCNCC3)c(F)cc2c1=O` | CP185 | 3.162 | inhibitor, single point |
| `O=C(O)c1cn(C2CC2)c2cc(N3CCNCC3)c(F)cc2c1=O` | CP286 | 1.585 | inhibitor, partial curve |
| `O=C(O)c1cn(C2CC2)c2cc(N3CCNCC3)c(F)cc2c1=O` | CP238 | 10 | inhibitor, single point |
| `O=C(O)c1cn(C2CC2)c2cc(N3CCNCC3)c(F)cc2c1=O` | CP305 | 4.548 | inhibitor, partial curve |

Some entries from above, unchanged:

- C[C@@H]1CC2[C@@H]3C[C@H](F)C4=CC(=O)C(Cl)=C[C@]4(C)[C@@]3(F)[C@H](O)C[C@]2(C)[C@@]1(O)C(=O)CO (stereo partly shown) [CP252] | fitted potency 10 µM (inhibitor, single point)
- C[C@@H]1CC2[C@@H]3C[C@H](F)C4=CC(=O)C(Cl)=C[C@]4(C)[C@@]3(F)[C@H](O)C[C@]2(C)[C@@]1(O)C(=O)CO (stereo partly shown) [AS120] | fitted potency 12.59 µM (inhibitor, single point)
- C[C@@H]1CC2[C@@H]3C[C@H](F)C4=CC(=O)C(Cl)=C[C@]4(C)[C@@]3(F)[C@H](O)C[C@]2(C)[C@@]1(O)C(=O)CO (stereo partly shown) [GB4] | fitted potency 19.01 µM (inhibitor, single point)
- C[C@@H]1CC2[C@@H]3C[C@H](F)C4=CC(=O)C(Cl)=C[C@]4(C)[C@@]3(F)[C@H](O)C[C@]2(C)[C@@]1(O)C(=O)CO (stereo partly shown) [P94_40] | fitted potency 8.912 µM (inhibitor, single point)

Source: PubChem BioAssay AID504749 (NCATS, 2011).